{"source": "PubChem BioAssay AID1259308, NCATS, 2017", "assay": "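Candidate targets for better recombinant protein yield in mammalian cells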 (primary screen)", "cell system": "human HEK293 embryonic kidney cells stably expressing firefly luciferase (HEK-CMV-Luc2-Hygro)", "reagents": "single siRNA against human genes, 0.8 pmol siRNA per well", "duration": "72 h", "read-out": "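Luciferase light (ONE-Glo) measured on one replicate plate set and viability (CellTiter-Glo) on the other, scaled to a negative control siRNA, with robust z-scores and luciferase per cell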", "scale": "total luciferase, z-score and total luciferase, % of control: higher = more reporter protein produced", "hit rule": "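An siRNA counts as active if its total luciferase robust z-score exceeds 3; genes with two or more such siRNAs out of three were retested with fresh siRNAs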", "meaning of the calls": "active = raised luciferase; inactive = no rise", "note": "In all, the deposit lists about 59,000 reagents; this is a part drawn at random. About 1,510 of them (2.6%) were called active. 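Calls use total luciferase alone and ignore viability, so some active siRNAs may act by altering cell number.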 Entries without a mark were called inactive. The numbers tell different reagents against one gene apart. Not all columns of the deposit are shown."}
{"gene": "SSR1", "siRNA no.": 1, "total luciferase, z-score": 0.961, "total luciferase, % of control": 101}
{"gene": "SSR1", "siRNA no.": 2, "total luciferase, z-score": -0.589, "total luciferase, % of control": 70.2}
{"gene": "SSR1", "siRNA no.": 3, "total luciferase, z-score": -1.06, "total luciferase, % of control": 60.8}
{"gene": "RND1", "siRNA no.": 1, "total luciferase, z-score": -0.813, "total luciferase, % of control": 65.7}
{"gene": "RND1", "siRNA no.": 2, "total luciferase, z-score": 0.695, "total luciferase, % of control": 95.7}
{"gene": "RND1", "siRNA no.": 3, "total luciferase, z-score": -0.76, "total luciferase, % of control": 66.8}
{"gene": "CCP110", "siRNA no.": 1, "total luciferase, z-score": -1.13, "total luciferase, % of control": 59.4}
{"gene": "CCP110", "siRNA no.": 2, "total luciferase, z-score": -0.287, "total luciferase, % of control": 76.2}
{"gene": "CCP110", "siRNA no.": 3, "total luciferase, z-score": 1.99, "total luciferase, % of control": 122}
{"gene": "RRM2B", "siRNA no.": 1, "total luciferase, z-score": -0.398, "total luciferase, % of control": 74}
{"gene": "RRM2B", "siRNA no.": 2, "total luciferase, z-score": -0.349, "total luciferase, % of control": 74.9}
{"gene": "RRM2B", "siRNA no.": 3, "total luciferase, z-score": -0.5, "total luciferase, % of control": 71.9}

2 entries from above, reformatted.
gene,siRNA no.,"total luciferase, z-score","total luciferase, % of control"
SSR1,2,-0.589,70.2
SSR1,3,-1.06,60.8
